Results from patent US20140255378A1.
Substitutions are numbered along the chain they refer to. Names and notes keep the numbering of the source. Results are given in words; binding and its absence hold for the method and conditions named. Some results given as binding are weak or reduced against the parent protein; the word gives no strength. Values belong to the binder of their own block, whether it stands above or below them.

Key:
[1] = biological target: YRS(1-353)A4C (human tyrosyl-tRNA synthetase residues 1-353 with A4C, C67S and C250S), unPEGylated (human) (UniProt P54577); test: size exclusion chromatography (Superdex 200), self-association into homodimer
[2] = biological target: YRS(1-353)A351C (human tyrosyl-tRNA synthetase residues 1-353 with C67S, C250S and A351C), unPEGylated (human) (UniProt P54577); test: as above

binding [1]: binds
B1: YRS(1-353)A4C (human tyrosyl-tRNA synthetase residues 1-353 with A4C, C67S and C250S), unPEGylated (enzyme)
chain: MGDCPSPEEKLHLITRNLQEVLGEEKLKEILKERELKIYWGTATTGKPHVAYFVPMSKIADFLKAGSEVTILFADLHAYLDNMKAPWELLELRVSYYENVIKAMLESIGVPLEKLKFIKGTDYQLSKEYTLDVYRLSSVVTQHDSKKAGAEVVKQVEHPLLSGLLYPGLQALDEEYLKVDAQFGGIDQRKIFTFAEKYLPALGYSKRVHLMNPMVPGLTGSKMSSSEEESKIDLLDRKEDVKKKLKKAFSEPGNVENNGVLSFIKHVLFPLKSEFVILRDEKWGGNKTYTAYVDLEKDFAAEVVHPGDLKNSVEVALNKLLDPIREKFNTPALKKLASAAYPDPSKQKPMAKGHHHHHH

binding [2]: binds
B2: YRS(1-353)A351C (human tyrosyl-tRNA synthetase residues 1-353 with C67S, C250S and A351C), unPEGylated (enzyme)
chain: B1 chain with C4A, A351C
